Measurements taken from publication PMC7985502.

How the values were obtained:
[1] = target: EGFP-tagged p.Val594Gly mutant SEC23B (human) (UniProt Q15437); assay: affinity purification with mass spectrometry; anti-GFP (Abcam ab290) immunoprecipitation from lysates of stable Nthy-ori 3-1 cells, 10 mg total protein as 2 mg/ml lysates; cells untreated or treated with MG132 (10 uM, 24 h); normal rabbit IgG and Nthy-EGFP cells as negative controls; SDS-PAGE, then mass spectrometry
[2] = target: EGFP-tagged wild-type SEC23B (human) (UniProt Q15437); assay: as above

binding [1]: binds | binding [2]: binds
B1: SEC23IP (protein, UniProt Q9Y6Y8 1-1000)
chain: MAERKPNGGSGGASTSSSGTNLLFSSSATEFSFNVPFIPVTQASASPASLLLPGEDSTDVGEEDSFLGQTSIHTSAPQTFSYFSQVSSSSDPFGNIGQSPLTTAATSVGQSGFPKPLTALPFTTGSQDVSNAFSPSISKAQPGAPPSSLMGINSYLPSQPSSLPPSYFGNQPQGIPQPGYNPYRHTPGSSRANPYIAPPQLQQCQTPGPPAHPPPSGPPVQMYQMPPGSLPPVPSSVQSPAQQQVPARPGAPSVQVPSPFLLQNQYEPVQPHWFYCKEVEYKQLWMPFSVFDSLNLEEIYNSVQPDPESVVLGTDGGRYDVYLYDRIRKAAYWEEEPAEVRRCTWFYKGDTDSRFIPYTEEFSEKLEAEYKKAVTTNQWHRRLEFPSGETIVMHNPKVIVQFQPSSVPDEWGTTQDGQTRPRVVKRGIDDNLDEIPDGEMPQVDHLVFVVHGIGPVCDLRFRSIIECVDDFRVVSLKLLRTHFKKSLDDGKVSRVEFLPVHWHSSLGGDATGVDRNIKKITLPSIGRFRHFTNETLLDILFYNSPTYCQTIVEKVGMEINHLHALFMSRNPDFKGGVSVAGHSLGSLILFDILSNQKDLNLSKCPGPLAVANGVVKQLHFQEKQMPEEPKLTLDESYDLVVENKEVLTLQETLEALSLSEYFSTFEKEKIDMESLLMCTVDDLKEMGIPLGPRKKIANFVEHKAAKLKKAASEKKAVAATSTKGQEQSAQKTKDMASLPSESNEPKRKLPVGACVSSVCVNYESFEVGAGQVSVAYNSLDFEPEIFFALGSPIAMFLTIRGVDRIDENYSLPTCKGFFNIYHPLDPVAYRLEPMIVPDLDLKAVLIPHHKGRKRLHLELKESLSRMGSDLKQGFISSLKSAWQTLNEFARAHTSSTQLQEELEKVANQIKEEEEKQVVEAEKVVESPDFSKDEDYLGKVGMLNGGRRIDYVLQEKPIESFNEYLFALQSHLCYWESEDTALLLLKEIYRTMNISPEQPQH

No constants are given. Whether binding was seen depends on the method and setting. Binding seen in cells or lysates may run through a third protein. A yes stands for co-enrichment or nearness to the bait. Other partners may have been found. For some assays here: Where a sequence is shown, tags or fusion partners need not be part of it.
